doi:10.1101/2025.01.07.631698
These are yes or no findings as the source states them, for the method shown. Sequences can lack the tags named with a protein.

Biological target: T1, Anillin-GFP (full-length human anillin, isoform 2, 1087 amino acids) (human), Q9NQW6
T1 chain: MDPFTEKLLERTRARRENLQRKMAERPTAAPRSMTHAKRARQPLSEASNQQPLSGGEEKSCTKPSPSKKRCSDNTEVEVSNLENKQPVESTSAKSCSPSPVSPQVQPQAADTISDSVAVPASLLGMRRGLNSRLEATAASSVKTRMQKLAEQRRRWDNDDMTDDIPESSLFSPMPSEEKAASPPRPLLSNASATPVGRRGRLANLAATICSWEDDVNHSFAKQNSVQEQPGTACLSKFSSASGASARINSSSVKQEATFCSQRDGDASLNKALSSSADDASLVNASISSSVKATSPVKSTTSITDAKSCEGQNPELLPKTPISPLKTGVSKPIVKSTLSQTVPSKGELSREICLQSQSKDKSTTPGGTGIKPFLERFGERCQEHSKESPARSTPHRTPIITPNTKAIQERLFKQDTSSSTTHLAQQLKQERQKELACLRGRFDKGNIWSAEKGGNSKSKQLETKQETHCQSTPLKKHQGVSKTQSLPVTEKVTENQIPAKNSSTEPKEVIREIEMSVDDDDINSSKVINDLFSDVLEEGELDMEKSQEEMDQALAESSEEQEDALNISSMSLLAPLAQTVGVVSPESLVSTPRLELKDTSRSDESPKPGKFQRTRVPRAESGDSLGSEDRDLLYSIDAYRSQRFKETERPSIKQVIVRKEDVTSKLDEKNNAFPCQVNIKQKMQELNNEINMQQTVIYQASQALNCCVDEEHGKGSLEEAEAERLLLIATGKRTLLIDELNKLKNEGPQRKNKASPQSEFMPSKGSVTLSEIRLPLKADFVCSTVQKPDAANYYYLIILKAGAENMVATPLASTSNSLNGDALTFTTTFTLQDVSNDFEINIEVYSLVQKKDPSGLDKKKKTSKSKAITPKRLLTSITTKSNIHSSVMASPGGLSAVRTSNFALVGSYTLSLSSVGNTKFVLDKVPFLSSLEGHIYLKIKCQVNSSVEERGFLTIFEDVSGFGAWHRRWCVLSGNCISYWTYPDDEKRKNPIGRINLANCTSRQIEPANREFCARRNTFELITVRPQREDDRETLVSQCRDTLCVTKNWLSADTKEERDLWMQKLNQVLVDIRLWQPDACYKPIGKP
Assay: mass photometry
Details: remark: other sources report otherwise

B1: Anillin-GFP (full-length human anillin, isoform 2, 1087 amino acids), Q9NQW6-2 1-1087 (protein)
chain: MDPFTEKLLERTRARRENLQRKMAERPTAAPRSMTHAKRARQPLSEASNQQPLSGGEEKSCTKPSPSKKRCSDNTEVEVSNLENKQPVESTSAKSCSPSPVSPQVQPQAADTISDSVAVPASLLGMRRGLNSRLEATAASSVKTRMQKLAEQRRRWDNDDMTDDIPESSLFSPMPSEEKAASPPRPLLSNASATPVGRRGRLANLAATICSWEDDVNHSFAKQNSVQEQPGTACLSKFSSASGASARINSSSVKQEATFCSQRDGDASLNKALSSSADDASLVNASISSSVKATSPVKSTTSITDAKSCEGQNPELLPKTPISPLKTGVSKPIVKSTLSQTVPSKGELSREICLQSQSKDKSTTPGGTGIKPFLERFGERCQEHSKESPARSTPHRTPIITPNTKAIQERLFKQDTSSSTTHLAQQLKQERQKELACLRGRFDKGNIWSAEKGGNSKSKQLETKQETHCQSTPLKKHQGVSKTQSLPVTEKVTENQIPAKNSSTEPKEVIREIEMSVDDDDINSSKVINDLFSDVLEEGELDMEKSQEEMDQALAESSEEQEDALNISSMSLLAPLAQTVGVVSPESLVSTPRLELKDTSRSDESPKPGKFQRTRVPRAESGDSLGSEDRDLLYSIDAYRSQRFKETERPSIKQVIVRKEDVTSKLDEKNNAFPCQVNIKQKMQELNNEINMQQTVIYQASQALNCCVDEEHGKGSLEEAEAERLLLIATGKRTLLIDELNKLKNEGPQRKNKASPQSEFMPSKGSVTLSEIRLPLKADFVCSTVQKPDAANYYYLIILKAGAENMVATPLASTSNSLNGDALTFTTTFTLQDVSNDFEINIEVYSLVQKKDPSGLDKKKKTSKSKAITPKRLLTSITTKSNIHSSVMASPGGLSAVRTSNFALVGSYTLSLSSVGNTKFVLDKVPFLSSLEGHIYLKIKCQVNSSVEERGFLTIFEDVSGFGAWHRRWCVLSGNCISYWTYPDDEKRKNPIGRINLANCTSRQIEPANREFCARRNTFELITVRPQREDDRETLVSQCRDTLCVTKNWLSADTKEERDLWMQKLNQVLVDIRLWQPDACYKPIGKP
  binding: no binding (tested: 5, 15 or 50 nM)
